# In PMC12057046, “Elucidation of short linear motif-based interactions of the MIT and rhodanese domains of the ubiquitin-specific protease 8” (Biology Direct, 2025):
# Target: T1, GST-tagged USP8 MIT domain (1-142) (human) (UniProt P40818)
# T1 sequence: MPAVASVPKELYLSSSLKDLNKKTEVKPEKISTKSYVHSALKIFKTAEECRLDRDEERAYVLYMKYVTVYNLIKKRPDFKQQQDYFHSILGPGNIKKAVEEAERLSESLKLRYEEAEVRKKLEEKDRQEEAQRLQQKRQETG
# Assay: proteomic peptide-phage display (ProP-PD) selection; 10 µg GST-tagged bait immobilised on MaxiSorp plate; M13 phage library of the human disorderome pre-cleared on GST; four rounds, PBS, 2 h at 4 °C; enriched pools read by NGS; only the target purified
substance,measurement,value
"HIVEP1 741-756 peptide, displayed on M13 phage (from UniProt P15822 741-756)",binding,binds

# No constants are given. Whether binding was seen depends on the method and setting. In cells and extracts the contact can be indirect. A yes stands for co-enrichment or nearness to the bait. Other partners may have been found. Tags and fused reporters may be left off the sequences shown.
